In paper PMC7607909:

Molecular target: mature Arabidopsis Atp11 fused to the bait vector (BD-Atp11) (Arabidopsis thaliana)
Assay: two-hybrid; Matchmaker Gold Yeast Two-hybrid System (Clontech); bait in pGBKT7, prey in pGADT7, yeast strain Y2H Gold; growth on SD/-Leu/-Trp/-His/-ade/X-a-Gal medium, 10- to 10,000-fold dilutions

B1: PAB, chloroplast ATP synthase assembly factor (yeast two-hybrid fusion) (protein, UniProt Q94JY0 1-330)
chain: MGSISMHITPSTALPIRHFRARVSCCSSGHVSFIKDVAATEPPMHLHHLLKVLQTRGETIISPGAKQGLIPLAIPLSKNSSGSVTALLRWPTAPPGMDMPVVEVWRSGVRLIARNVDEYIHRILVEEDAQELTELYRASGEAGEKLYEKGAFAESEIDNLDVYVLKKVGLFPDLLERKVLRHFDEGDHVSAMVTGEFYTKKDLFPGFGRPFVYYANILQKVGRNVEAKDAARVALRSPWWTLGCPYEEVASIAQWEDEQIEFIREKVSDEGRFEDLHKGKAPIQVALDVAAFLLDLASIEGTWSESLNHIAKCYEEAGLHHISNFVLYTD
  binding: no binding

No constants are given. Whether binding was seen depends on the method and setting. Tags and fused reporters may be left off the sequences shown.
